Experimental data: PubChem BioAssay AID1259254 (NCATS, 2017)
Here is one part, drawn at random, of about 59,000 reagents. About 1,550 of all reagents (2.6%) were called active. 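G2 share is only a proxy for re-replication; each gene was hit by three separate siRNAs, and active genes were retested.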 The raw values are shown without normalisation. Reagents against one gene are numbered here. The record does not give: the amount of reagent.

Aim: 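Gene knock-downs that lead to re-replication, shown by excess G2 DNA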 (primary screen)
Cell system: human HCT116 colorectal cancer cells
Reagents: single siRNA against human genes
Timing: 3 days
Detection: 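Imaged Hoechst DNA stain sorts each cell into a cycle phase by DNA amount; per plate, G2 fraction set to 0% for non-targeting and 100% for GMNN siRNA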
Reading the numbers: G2 robust z-score and G2 cells, % of GMNN control: higher = more G2 cells, more excess DNA replication; raw share of cells in G2: higher = larger share of cells with G2 DNA content
Active means: 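Active siRNAs have a G2 robust z of 5 or more median absolute deviations over the median, which in these data means about 38% or higher of GMNN control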

| Gene | reagent | G2 robust z-score | G2 cells, % of GMNN control | raw share of cells in G2 (%) | Call |
| --- | --- | --- | --- | --- | --- |
| SFT2D2 | 1 | -0.658 | -1.66 | 3.52 | inactive |
| SFT2D2 | 2 | -0.626 | -1.44 | 3.49 | inactive |
| SFT2D2 | 3 | 0.685 | 7.79 | 6.67 | inactive |
| VSX1 | 1 | 6.7 | 50.1 | 28.7 | active |
| VSX1 | 2 | -0.0887 | 2.34 | 5.11 | inactive |
| VSX1 | 3 | 1.02 | 10.1 | 7.68 | inactive |
| SLC16A12 | 1 | -0.257 | 1.16 | 4.71 | inactive |
| SLC16A12 | 2 | 0.477 | 6.32 | 8.63 | inactive |
| SLC16A12 | 3 | -0.397 | 0.177 | 5.03 | inactive |
| RAB5A | 1 | 0.733 | 8.13 | 7.78 | inactive |
| RAB5A | 2 | -0.408 | 0.0986 | 4.18 | inactive |
| RAB5A | 3 | -0.889 | -3.29 | 3.85 | inactive |

Entries listed so far whose gene name begins with R or r (3):
| Gene | reagent | G2 robust z-score | G2 cells, % of GMNN control | raw share of cells in G2 (%) | Call |
| --- | --- | --- | --- | --- | --- |
| RAB5A | 1 | 0.733 | 8.13 | 7.78 | inactive |
| RAB5A | 2 | -0.408 | 0.0986 | 4.18 | inactive |
| RAB5A | 3 | -0.889 | -3.29 | 3.85 | inactive |

Next results follow:
| Gene | reagent | G2 robust z-score | G2 cells, % of GMNN control | raw share of cells in G2 (%) | Call |
| --- | --- | --- | --- | --- | --- |
| SLA | 1 | 0.345 | 5.4 | 7.27 | inactive |
| SLA | 2 | -0.288 | 0.944 | 4.59 | inactive |
| SLA | 3 | -0.279 | 1 | 3.72 | inactive |
| FSCN2 | 1 | 2.01 | 17.1 | 10.8 | inactive |
| FSCN2 | 2 | -0.297 | 0.876 | 4.32 | inactive |
| FSCN2 | 3 | -0.438 | -0.111 | 3.26 | inactive |
| TOX | 1 | 4.54 | 34.9 | 21.1 | inactive |
| TOX | 2 | -0.373 | 0.345 | 4.09 | inactive |
| TOX | 3 | -0.945 | -3.68 | 2.06 | inactive |
| OR6C75 | 1 | -0.302 | 0.842 | 4.06 | inactive |
| OR6C75 | 2 | 1.25 | 11.8 | 8.53 | inactive |
| OR6C75 | 3 | -0.0362 | 2.71 | 5.8 | inactive |
| STK4 | 1 | -0.267 | 1.09 | 5.97 | inactive |
| STK4 | 2 | 1.29 | 12 | 9.46 | inactive |
| STK4 | 3 | -0.0256 | 2.79 | 5.01 | inactive |
| EIF2B4 | 1 | -1.14 | -5.03 | 2.91 | inactive |
| EIF2B4 | 2 | 0.221 | 4.52 | 6.85 | inactive |
| EIF2B4 | 3 | 2.33 | 19.4 | 13.3 | inactive |
